In publication doi:10.1101/344275 one finds binding data, which are given here for 3 substances.

By UniProt entry, the sequences of proteins in these tests, tags left out.
UniProt Q7Z6Z7: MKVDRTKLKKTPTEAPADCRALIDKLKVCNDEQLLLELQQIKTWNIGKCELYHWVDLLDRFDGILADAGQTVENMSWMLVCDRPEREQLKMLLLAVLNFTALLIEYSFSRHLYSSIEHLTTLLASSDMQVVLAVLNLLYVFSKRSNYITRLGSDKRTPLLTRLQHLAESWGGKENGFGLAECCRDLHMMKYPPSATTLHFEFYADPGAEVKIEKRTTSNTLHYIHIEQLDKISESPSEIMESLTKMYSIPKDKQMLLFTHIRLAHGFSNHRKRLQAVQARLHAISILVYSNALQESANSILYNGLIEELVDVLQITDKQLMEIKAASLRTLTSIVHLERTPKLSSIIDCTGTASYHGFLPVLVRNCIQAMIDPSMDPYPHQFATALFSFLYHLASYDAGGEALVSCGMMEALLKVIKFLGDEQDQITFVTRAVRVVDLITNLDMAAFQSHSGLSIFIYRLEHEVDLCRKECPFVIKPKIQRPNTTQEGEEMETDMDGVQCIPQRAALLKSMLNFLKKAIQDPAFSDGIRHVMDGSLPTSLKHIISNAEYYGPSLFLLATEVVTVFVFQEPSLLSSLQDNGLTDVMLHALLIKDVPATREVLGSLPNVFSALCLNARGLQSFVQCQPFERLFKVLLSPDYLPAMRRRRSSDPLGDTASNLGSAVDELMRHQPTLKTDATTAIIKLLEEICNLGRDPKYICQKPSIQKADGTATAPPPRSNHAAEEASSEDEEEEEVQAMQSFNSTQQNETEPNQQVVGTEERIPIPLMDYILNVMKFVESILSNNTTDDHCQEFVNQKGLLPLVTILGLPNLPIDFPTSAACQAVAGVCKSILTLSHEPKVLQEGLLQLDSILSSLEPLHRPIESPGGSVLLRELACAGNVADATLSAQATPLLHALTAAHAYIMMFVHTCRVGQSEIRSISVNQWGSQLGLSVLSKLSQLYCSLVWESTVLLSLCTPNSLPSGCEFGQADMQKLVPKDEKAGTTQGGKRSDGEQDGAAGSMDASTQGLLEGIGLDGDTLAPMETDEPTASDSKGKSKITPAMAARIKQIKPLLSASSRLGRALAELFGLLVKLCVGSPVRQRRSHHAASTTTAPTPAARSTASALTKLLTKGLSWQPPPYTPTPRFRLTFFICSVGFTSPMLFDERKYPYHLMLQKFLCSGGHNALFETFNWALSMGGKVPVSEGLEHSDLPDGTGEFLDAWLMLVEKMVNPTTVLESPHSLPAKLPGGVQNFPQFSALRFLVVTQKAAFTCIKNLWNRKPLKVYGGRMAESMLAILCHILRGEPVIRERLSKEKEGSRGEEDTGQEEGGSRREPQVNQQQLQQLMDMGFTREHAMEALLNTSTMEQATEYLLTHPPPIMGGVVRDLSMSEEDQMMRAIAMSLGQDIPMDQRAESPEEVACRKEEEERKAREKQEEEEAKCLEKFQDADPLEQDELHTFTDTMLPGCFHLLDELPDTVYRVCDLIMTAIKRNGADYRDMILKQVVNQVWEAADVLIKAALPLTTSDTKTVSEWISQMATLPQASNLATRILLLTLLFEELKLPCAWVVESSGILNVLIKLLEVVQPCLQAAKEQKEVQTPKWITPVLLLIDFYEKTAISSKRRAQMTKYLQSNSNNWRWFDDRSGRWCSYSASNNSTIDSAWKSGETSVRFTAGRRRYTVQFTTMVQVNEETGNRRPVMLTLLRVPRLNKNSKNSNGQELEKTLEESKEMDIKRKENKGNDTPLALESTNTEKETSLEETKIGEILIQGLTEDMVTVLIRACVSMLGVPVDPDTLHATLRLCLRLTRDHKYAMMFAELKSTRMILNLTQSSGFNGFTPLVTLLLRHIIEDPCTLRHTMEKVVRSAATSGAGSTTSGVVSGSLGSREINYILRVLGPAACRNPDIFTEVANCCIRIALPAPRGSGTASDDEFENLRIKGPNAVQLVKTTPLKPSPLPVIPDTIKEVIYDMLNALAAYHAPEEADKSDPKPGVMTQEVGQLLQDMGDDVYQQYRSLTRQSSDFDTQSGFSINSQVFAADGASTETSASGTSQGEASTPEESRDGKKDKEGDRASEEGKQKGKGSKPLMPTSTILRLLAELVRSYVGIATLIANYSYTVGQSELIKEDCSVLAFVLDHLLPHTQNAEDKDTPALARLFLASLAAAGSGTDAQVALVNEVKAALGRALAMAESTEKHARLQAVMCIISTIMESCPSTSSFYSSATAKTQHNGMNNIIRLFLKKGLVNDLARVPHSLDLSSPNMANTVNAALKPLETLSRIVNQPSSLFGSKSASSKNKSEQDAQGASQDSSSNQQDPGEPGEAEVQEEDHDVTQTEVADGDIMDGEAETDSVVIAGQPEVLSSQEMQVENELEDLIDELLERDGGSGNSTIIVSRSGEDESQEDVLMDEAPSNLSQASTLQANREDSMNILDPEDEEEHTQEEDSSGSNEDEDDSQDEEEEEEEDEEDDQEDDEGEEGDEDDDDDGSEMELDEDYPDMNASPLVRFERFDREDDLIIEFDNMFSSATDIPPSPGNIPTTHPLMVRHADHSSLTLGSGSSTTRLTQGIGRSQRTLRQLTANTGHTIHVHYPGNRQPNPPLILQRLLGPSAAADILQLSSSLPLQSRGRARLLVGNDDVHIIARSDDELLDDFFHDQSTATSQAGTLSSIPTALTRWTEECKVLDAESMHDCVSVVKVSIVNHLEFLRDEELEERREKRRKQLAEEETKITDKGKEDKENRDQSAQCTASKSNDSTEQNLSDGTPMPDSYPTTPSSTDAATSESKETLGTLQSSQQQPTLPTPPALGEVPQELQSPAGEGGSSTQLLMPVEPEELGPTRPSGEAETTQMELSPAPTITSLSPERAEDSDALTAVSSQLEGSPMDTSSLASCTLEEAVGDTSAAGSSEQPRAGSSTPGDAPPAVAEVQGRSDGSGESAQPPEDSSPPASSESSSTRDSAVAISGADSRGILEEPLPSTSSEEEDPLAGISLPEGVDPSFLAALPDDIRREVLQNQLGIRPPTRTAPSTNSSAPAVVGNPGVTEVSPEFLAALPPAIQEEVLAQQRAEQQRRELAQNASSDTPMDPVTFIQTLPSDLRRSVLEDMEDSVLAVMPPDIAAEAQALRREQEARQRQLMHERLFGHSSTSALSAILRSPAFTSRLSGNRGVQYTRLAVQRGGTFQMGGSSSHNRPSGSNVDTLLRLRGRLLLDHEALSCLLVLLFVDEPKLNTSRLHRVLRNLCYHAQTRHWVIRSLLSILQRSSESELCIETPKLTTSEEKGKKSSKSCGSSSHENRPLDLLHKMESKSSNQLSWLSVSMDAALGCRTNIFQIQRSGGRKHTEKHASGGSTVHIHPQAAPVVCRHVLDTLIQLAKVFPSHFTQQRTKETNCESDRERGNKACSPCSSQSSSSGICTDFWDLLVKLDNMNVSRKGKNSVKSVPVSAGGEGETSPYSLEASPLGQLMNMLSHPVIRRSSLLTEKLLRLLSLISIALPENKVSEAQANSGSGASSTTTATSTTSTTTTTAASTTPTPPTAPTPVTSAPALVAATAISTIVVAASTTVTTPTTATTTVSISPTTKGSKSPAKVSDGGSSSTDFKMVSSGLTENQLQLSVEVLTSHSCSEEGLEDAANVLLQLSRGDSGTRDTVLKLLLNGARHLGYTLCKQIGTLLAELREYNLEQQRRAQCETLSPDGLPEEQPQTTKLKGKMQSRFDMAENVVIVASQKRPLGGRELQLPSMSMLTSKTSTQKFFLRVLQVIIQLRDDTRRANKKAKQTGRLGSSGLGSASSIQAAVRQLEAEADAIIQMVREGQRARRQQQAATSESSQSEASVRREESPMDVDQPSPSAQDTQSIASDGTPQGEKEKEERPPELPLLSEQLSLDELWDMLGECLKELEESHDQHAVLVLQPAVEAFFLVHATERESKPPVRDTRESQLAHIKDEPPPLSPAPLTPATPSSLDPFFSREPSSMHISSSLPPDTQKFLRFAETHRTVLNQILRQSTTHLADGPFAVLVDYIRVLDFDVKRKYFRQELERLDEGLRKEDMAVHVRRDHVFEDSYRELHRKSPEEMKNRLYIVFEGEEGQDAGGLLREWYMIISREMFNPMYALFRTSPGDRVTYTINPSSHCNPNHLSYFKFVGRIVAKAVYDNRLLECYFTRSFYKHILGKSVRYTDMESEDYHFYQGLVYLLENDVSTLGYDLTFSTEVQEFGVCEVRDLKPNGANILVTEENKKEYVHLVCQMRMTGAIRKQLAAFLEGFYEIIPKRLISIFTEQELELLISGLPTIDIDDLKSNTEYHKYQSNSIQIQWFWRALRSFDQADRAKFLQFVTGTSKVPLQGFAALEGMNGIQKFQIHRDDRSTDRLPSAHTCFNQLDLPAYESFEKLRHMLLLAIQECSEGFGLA
UniProt P35226: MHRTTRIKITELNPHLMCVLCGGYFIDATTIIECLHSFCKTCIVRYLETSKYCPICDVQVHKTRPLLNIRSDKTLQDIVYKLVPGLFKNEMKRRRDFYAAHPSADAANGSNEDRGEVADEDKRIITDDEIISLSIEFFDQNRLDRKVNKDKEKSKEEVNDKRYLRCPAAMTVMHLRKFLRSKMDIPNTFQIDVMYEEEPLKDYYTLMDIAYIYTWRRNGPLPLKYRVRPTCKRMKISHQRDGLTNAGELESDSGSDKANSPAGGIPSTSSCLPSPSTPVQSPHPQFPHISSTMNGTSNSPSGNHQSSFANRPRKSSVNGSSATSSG

The target in assay [1] is HUWE1 (human (endogenous in A549)) (UniProt Q7Z6Z7). Briefly: co-IP.
Assay [2] has as its target BMI1-HA (BMI1 and HA-tag fusion protein) (UniProt P35226). The experiment in a line: co-IP.

No constants are given. Whether binding was seen depends on the method and setting. Binding seen in cells or lysates may run through a third protein. Some entries that bind do so weakly or less than the wild type.

Turning to “endogenous BMI1 (from UniProt P35226 1-326)”, in assay [1], the binding result is given as “binds”.

With “HUWE1 (from UniProt Q7Z6Z7 1-4374) (enzyme)”, the binding entry in assay [2] is “binds”.

“BMI1-HA (BMI1 and HA-tag fusion protein) (from UniProt P35226 1-326)”: the binding entry in assay [1] was “binds”.
